# Earlier results, collected in US20040006070A1, “Intraspinal continuous infusion of midazolam hydrochloride for the treatment of pain” (priority 2002, published 2004).
# Conditions: in vivo; cited from earlier work
smiles,measurement,value
"CN1CC[C@]23c4c5ccc(O)c4O[C@H]2[C@@H](O)C=C[C@H]3[C@H]1C5.O=S(=O)(O)O [morphine, morphine sulfate]",potency of intrathecal infusion relative to intravenous infusion,approximately 20 times
